# The supplement of paper PMC8728848
# The list shows a part of the results.
# B1: SBD (Rhizopus oryzae), P07683 (protein)
# chain: ASIPSSASVQLDSYNYDGSTFSGKIYVKNIAYSKKVTVVYADGSDNWNNNGNIIAASFSGPISGSNYEYWTFSASVKGIKEFYIKYEVSGKTYYDNNNSANYQVS
# What was measured:
# Test in all cases: glycan array binding signal (z-score within array); higher = stronger binding
# Conditions in all cases: glycan notation: IUPAC condensed, linker removed
# [1] = target: Gal(b1-3)[Fuc(a1-4)]GlcNAc(b1-3)Gal(b1-3)[Fuc(a1-4)]GlcNAc
# How it was run: (§1)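 From the Consortium for Functional Glycomics database, 3228 arrays were curated, keeping only those whose protein sequence was available. Binding is given as a within-array Z-score averaged across arrays sharing a protein sequence and across linkers. Negative Z-scores can be read as non-binding.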
# [2] = target: Gal(b1-3)[Fuc(a1-4)]GlcNAc(b1-3)Gal(b1-4)GlcNAc
# How it was run: as §1
# [3] = target: Gal(b1-3)[Fuc(a1-4)]GlcNAc(b1-3)Gal(b1-4)[Fuc(a1-3)]GlcNAc
# How it was run: as §1
# [4] = target: Gal(b1-3)[GlcNAc(b1-6)]GalNAc
# How it was run: as §1
# [5] = target: Gal(b1-3)[Neu5Ac(a2-6)]GalNAc
# How it was run: as §1
# [6] = target: Gal(b1-3)[Neu5Ac(a2-6)]GlcNAc(b1-6)Gal(b1-4)Glc
# How it was run: as §1
# [7] = target: Gal(b1-3)[Neu5Ac(b2-6)]GalNAc
# How it was run: as §1
# [8] = target: Gal(b1-4)GalNAc(a1-3)[Fuc(a1-2)]Gal(b1-4)GlcNAc
# How it was run: as §1
# [9] = target: Gal(b1-4)GalNAc(b1-3)[Fuc(a1-2)]Gal(b1-4)GlcNAc
# How it was run: as §1
# Gal(b1-4)Glc = target: Gal(b1-4)Glc
# How it was run: as §1
# Gal(b1-4)Glc6S = target: Gal(b1-4)Glc6S
# How it was run: as §1
# Gal(b1-4)GlcNAc = target: Gal(b1-4)GlcNAc
# How it was run: as §1
# [10] = target: Gal(b1-4)GlcNAc(a1-6)Gal(b1-4)GlcNAc
# How it was run: as §1
# [11] = target: Gal(b1-4)GlcNAc(b1-2)Man(a1-3)Man(b1-4)GlcNAc(b1-4)GlcNAc
# How it was run: as §1
# [12] = target: Gal(b1-4)GlcNAc(b1-2)Man(a1-3)[Gal(b1-4)GlcNAc(b1-2)Man(a1-6)]Man(b1-4)GlcNAc(b1-4)GlcNAc
# How it was run: as §1
# [13] = target: Gal(b1-4)GlcNAc(b1-2)Man(a1-3)[Gal(b1-4)GlcNAc(b1-2)Man(a1-6)]Man(b1-4)GlcNAc(b1-4)[Fuc(a1-6)]GlcNAc
# How it was run: as §1
# [14] = target: Gal(b1-4)GlcNAc(b1-2)Man(a1-3)[GlcNAc(b1-2)Man(a1-6)]Man(b1-4)GlcNAc(b1-4)GlcNAc
# How it was run: as §1
# [15] = target: Gal(b1-4)GlcNAc(b1-2)Man(a1-3)[Man(a1-6)]Man(b1-4)GlcNAc(b1-4)GlcNAc
# How it was run: as §1
# [16] = target: Gal(b1-4)GlcNAc(b1-2)Man(a1-6)Man(b1-4)GlcNAc(b1-4)GlcNAc
# How it was run: as §1
# [17] = target: Gal(b1-4)GlcNAc(b1-2)Man(a1-6)[GlcNAc(b1-2)Man(a1-3)]Man(b1-4)GlcNAc(b1-4)GlcNAc
# How it was run: as §1
# [18] = target: Gal(b1-4)GlcNAc(b1-2)Man(a1-6)[Man(a1-3)]Man(b1-4)GlcNAc(b1-4)GlcNAc
# How it was run: as §1
# [19] = target: Gal(b1-4)GlcNAc(b1-2)[Gal(b1-4)GlcNAc(b1-4)]Man(a1-3)[Gal(b1-4)GlcNAc(b1-2)Man(a1-6)]Man(b1-4)GlcNAc(b1-4)GlcNAc
# How it was run: as §1
# [20] = target: Gal(b1-4)GlcNAc(b1-2)[Gal(b1-4)GlcNAc(b1-4)]Man(a1-3)[Gal(b1-4)GlcNAc(b1-2)[Gal(b1-4)GlcNAc(b1-6)]Man(a1-6)]Man(b1-4)GlcNAc(b1-4)GlcNAc
# How it was run: as §1
# [21] = target: Gal(b1-4)GlcNAc(b1-3)Gal(b1-3)GlcNAc
# How it was run: as §1
# [22] = target: Gal(b1-4)GlcNAc(b1-3)Gal(b1-4)Glc
# How it was run: as §1
# [23] = target: Gal(b1-4)GlcNAc(b1-3)Gal(b1-4)GlcNAc
# How it was run: as §1
# [24] = target: Gal(b1-4)GlcNAc(b1-3)Gal(b1-4)GlcNAc(b1-3)Gal(b1-4)GlcNAc
# How it was run: as §1
# [25] = target: Gal(b1-4)GlcNAc(b1-3)Gal(b1-4)[Fuc(a1-3)]GlcNAc(b1-3)Gal(b1-4)[Fuc(a1-3)]GlcNAc
# How it was run: as §1
# [26] = target: Gal(b1-4)GlcNAc(b1-3)GalNAc
# How it was run: as §1
# [27] = target: Gal(b1-4)GlcNAc(b1-3)[Gal(b1-4)GlcNAc(b1-6)]Gal(b1-4)GlcNAc
# How it was run: as §1
# [28] = target: Gal(b1-4)GlcNAc(b1-3)[Gal(b1-4)GlcNAc(b1-6)]GalNAc
# How it was run: as §1
# [29] = target: Gal(b1-4)GlcNAc(b1-3)[GlcNAc(b1-6)]Gal(b1-4)GlcNAc
# How it was run: as §1
# [30] = target: Gal(b1-4)GlcNAc(b1-6)Gal(b1-4)GlcNAc
# How it was run: as §1
# [31] = target: Gal(b1-4)GlcNAc(b1-6)Gal(b1-4)GlcNAc(b1-6)GalNAc
# How it was run: as §1
# [32] = target: Gal(b1-4)GlcNAc(b1-6)GalNAc
# How it was run: as §1
# [33] = target: Gal(b1-4)GlcNAc(b1-6)[Gal(b1-3)]GalNAc
# How it was run: as §1
# Gal3S(b1-3)GalNAc = target: Gal3S(b1-3)GalNAc
# How it was run: as §1
# Gal3S(b1-3)GlcNAc = target: Gal3S(b1-3)GlcNAc
# How it was run: as §1
binder,measurement,setting,value
B1,glycan array binding signal (z-score),[1],-0.484
same,glycan array binding signal (z-score),[2],0.328
same,glycan array binding signal (z-score),[3],0.121
same,glycan array binding signal (z-score),[4],-0.253
same,glycan array binding signal (z-score),[5],-0.432
same,glycan array binding signal (z-score),[6],1.24
same,glycan array binding signal (z-score),[7],-0.657
same,glycan array binding signal (z-score),[8],0.553
same,glycan array binding signal (z-score),[9],0.033
same,glycan array binding signal (z-score),Gal(b1-4)Glc,-0.248
same,glycan array binding signal (z-score),Gal(b1-4)Glc6S,0.109
same,glycan array binding signal (z-score),Gal(b1-4)GlcNAc,-0.407
same,glycan array binding signal (z-score),[10],-0.335
same,glycan array binding signal (z-score),[11],-0.573
same,glycan array binding signal (z-score),[12],-0.052
same,glycan array binding signal (z-score),[13],0.072
same,glycan array binding signal (z-score),[14],-0.194
same,glycan array binding signal (z-score),[15],0.03
same,glycan array binding signal (z-score),[16],-0.238
same,glycan array binding signal (z-score),[17],-0.081
same,glycan array binding signal (z-score),[18],-0.373
same,glycan array binding signal (z-score),[19],0.052
same,glycan array binding signal (z-score),[20],0.825
same,glycan array binding signal (z-score),[21],-0.395
same,glycan array binding signal (z-score),[22],1.63
same,glycan array binding signal (z-score),[23],0.159
same,glycan array binding signal (z-score),[24],-0.51
same,glycan array binding signal (z-score),[25],0.196
same,glycan array binding signal (z-score),[26],0.13
same,glycan array binding signal (z-score),[27],-0.472
same,glycan array binding signal (z-score),[28],0.778
same,glycan array binding signal (z-score),[29],-0.424
same,glycan array binding signal (z-score),[30],0.47
same,glycan array binding signal (z-score),[31],-0.088
same,glycan array binding signal (z-score),[32],-0.13
same,glycan array binding signal (z-score),[33],-0.329
same,glycan array binding signal (z-score),Gal3S(b1-3)GalNAc,0.222
same,glycan array binding signal (z-score),Gal3S(b1-3)GlcNAc,-0.254

# Reprinted from the results shown for reference:
binder,measurement,setting,value
B1,glycan array binding signal (z-score),Gal(b1-4)Glc,-0.248
same,glycan array binding signal (z-score),Gal(b1-4)Glc6S,0.109
same,glycan array binding signal (z-score),Gal(b1-4)GlcNAc,-0.407
